Measurements: patent US8673951B2, “Isoxazoline-substituted benzamide compound and pesticide” (priority 2005, dated 2014)
Some entries share one result that the patent states for a list of compounds. At least one structure is not confirmed: it was looked up by name or label, or the drawing left a doubt.

Test system: cabbage moth (Plutella xylostella)
Test: Insecticidal test against cabbage moth (Test Example 1)
Type: in vivo
Details: chemical solution 10 ppm (**); cabbage leaf dip; second instar larva; after 6 days; 25° C.

SMILES	insecticidal rate (rate of dead insects)
Cc1cc(C2=NOC(c3cc(Cl)cc(Cl)c3)(C(F)(F)F)C2)ccc1C(=O)N(C)c1ccc(F)cc1F (centres unmarked) [5-030]	≥ 80%
CCN(C(=O)c1ccc(C2=NOC(c3cc(Cl)cc(Cl)c3)(C(F)(F)F)C2)cc1C)c1ccc(F)cc1F (centres unmarked) [5-031]	≥ 80%
COCN(C(=O)c1ccc(C2=NOC(c3cc(Cl)cc(Cl)c3)(C(F)(F)F)C2)cc1C)c1ccc(F)cc1F (centres unmarked) [5-032]	≥ 80%
Cc1cc(C2=NOC(c3cc(Cl)cc(Cl)c3)(C(F)(F)F)C2)ccc1C(=O)N(C(=O)C(C)C)c1ccc(F)cc1F (centres unmarked) [5-034]	≥ 80%
Cc1cc(C2=NOC(c3cc(Cl)cc(Cl)c3)(C(F)(F)F)C2)ccc1C(=O)N(C(=O)C(C)(C)C)c1ccc(F)cc1F (centres unmarked) [5-035]	≥ 80%
COC(=O)N(C(=O)c1ccc(C2=NOC(c3cc(Cl)cc(Cl)c3)(C(F)(F)F)C2)cc1C)c1ccc(F)cc1F (centres unmarked) [5-036]	≥ 80%
CCN(C(=O)c1ccc(C2=NOC(c3cc(Cl)cc(Cl)c3)(C(F)(F)F)C2)cc1C)c1ccc(Cl)cn1 (centres unmarked) [5-053]	≥ 80%
COCN(C(=O)c1ccc(C2=NOC(c3cc(Cl)cc(Cl)c3)(C(F)(F)F)C2)cc1C)c1ccc(Cl)cn1 (centres unmarked) [5-054]	≥ 80%
Cc1cc(C2=NOC(c3cc(Cl)cc(Cl)c3)(C(F)(F)F)C2)ccc1C(=O)N(CC#N)c1ccc(Cl)cn1 (centres unmarked) [5-055]	≥ 80%
CC(=O)N(C(=O)c1ccc(C2=NOC(c3cc(Cl)cc(Cl)c3)(C(F)(F)F)C2)cc1C)c1ccc(Cl)cn1 (centres unmarked) [5-056]	≥ 80%
CCC(=O)N(C(=O)c1ccc(C2=NOC(c3cc(Cl)cc(Cl)c3)(C(F)(F)F)C2)cc1C)c1ccc(Cl)cn1 (centres unmarked) [5-057]	≥ 80%
CCCC(=O)N(C(=O)c1ccc(C2=NOC(c3cc(Cl)cc(Cl)c3)(C(F)(F)F)C2)cc1C)c1ccc(Cl)cn1 (centres unmarked) [5-058]	≥ 80%
Cc1cc(C2=NOC(c3cc(Cl)cc(Cl)c3)(C(F)(F)F)C2)ccc1C(=O)N(C(=O)C(C)(C)C)c1ccc(Cl)cn1 (centres unmarked) [5-059]	≥ 80%
Cc1cc(C2=NOC(c3cc(Cl)cc(Cl)c3)(C(F)(F)F)C2)ccc1C(=O)N(C)c1ccc(Br)cn1 (centres unmarked) [5-061]	≥ 80%
CC(=O)N(C(=O)c1ccc(C2=NOC(c3cc(Cl)cc(Cl)c3)(C(F)(F)F)C2)cc1C)c1ccc(Br)cn1 (centres unmarked) [5-062]	≥ 80%
COC(=O)N(C(=O)c1ccc(C2=NOC(c3cc(Cl)cc(Cl)c3)(C(F)(F)F)C2)cc1C)c1ccc(Br)cn1 (centres unmarked) [5-063]	≥ 80%
Cc1cc(C2=NOC(c3cc(Cl)cc(Cl)c3)(C(F)(F)F)C2)ccc1C(=O)N(C)c1ccc(C(F)(F)F)cn1 (centres unmarked) [5-064]	≥ 80%
CC(=O)N(C(=O)c1ccc(C2=NOC(c3cc(Cl)cc(Cl)c3)(C(F)(F)F)C2)cc1C)c1ccc(C(F)(F)F)cn1 (centres unmarked) [5-065]	≥ 80%
COC(=O)N(C(=O)c1ccc(C2=NOC(c3cc(Cl)cc(Cl)c3)(C(F)(F)F)C2)cc1C)c1ccc(C(F)(F)F)cn1 (centres unmarked) [5-066]	≥ 80%
Cc1cc(C2=NOC(c3cc(Cl)cc(Cl)c3)(C(F)(F)F)C2)ccc1C(=O)N(C)c1ccc([N+](=O)[O-])cn1 (centres unmarked) [5-067]	≥ 80%
CC(=O)N(C(=O)c1ccc(C2=NOC(c3cc(Cl)cc(Cl)c3)(C(F)(F)F)C2)cc1C)c1ccc([N+](=O)[O-])cn1 (centres unmarked) [5-068]	≥ 80%
COC(=O)N(C(=O)c1ccc(C2=NOC(c3cc(Cl)cc(Cl)c3)(C(F)(F)F)C2)cc1C)c1ccc([N+](=O)[O-])cn1 (centres unmarked) [5-069]	≥ 80%
Cc1cc(C2=NOC(c3cc(Cl)cc(Cl)c3)(C(F)(F)F)C2)ccc1C(=O)N(C)c1ccc(C#N)cn1 (centres unmarked) [5-070]	≥ 80%
Cc1cc(C2=NOC(c3cc(Cl)cc(Cl)c3)(C(F)(F)F)C2)ccc1C(=O)N(C)c1cccc(Cl)n1 (centres unmarked) [5-072]	≥ 80%
COC(=O)N(C(=O)c1ccc(C2=NOC(c3cc(Cl)cc(Cl)c3)(C(F)(F)F)C2)cc1C)c1cccc(Cl)n1 (centres unmarked) [5-074]	≥ 80%
CC(=O)N(C(=O)c1ccc(C2=NOC(c3cc(Cl)cc(Cl)c3)(C(F)(F)F)C2)cc1C)c1cccc(Br)n1 (centres unmarked) [5-076]	≥ 80%
COC(=O)N(C(=O)c1ccc(C2=NOC(c3cc(Cl)cc(Cl)c3)(C(F)(F)F)C2)cc1C)c1cccc(Br)n1 (centres unmarked) [5-077]	≥ 80%
Cc1cc(C2=NOC(c3cc(Cl)cc(Cl)c3)(C(F)(F)F)C2)ccc1C(=O)N(CC#N)c1ncccn1 (centres unmarked) [5-087]	≥ 80%
Cc1cc(C2=NOC(c3cc(Cl)cc(Cl)c3)(C(F)(F)F)C2)ccc1C(=O)N(C(=O)C(C)C)c1ncccn1 (centres unmarked) [5-090]	≥ 80%

Same assay, conditions: chemical solution 100 ppm (*); cabbage leaf dip; second instar larva; after 6 days; 25° C.

SMILES	insecticidal rate (rate of dead insects)
Cc1cc(C2=NOC(c3cc(Cl)cc(Cl)c3)(C(F)(F)F)C2)ccc1C(=O)N(C(=O)NC(=O)CCl)c1ccc(F)cc1 (centres unmarked) [5-023]	≥ 80%
Cc1cc(C2=NOC(c3cc(Cl)cc(Cl)c3)(C(F)(F)F)C2)ccc1C(=O)N(C)c1ccc([N+](=O)[O-])cc1 (centres unmarked) [5-024]	≥ 80%
CC(=O)N(C(=O)c1ccc(C2=NOC(c3cc(Cl)cc(Cl)c3)(C(F)(F)F)C2)cc1C)c1ccc([N+](=O)[O-])cc1 (centres unmarked) [5-025]	≥ 80%
COC(=O)N(C(=O)c1ccc(C2=NOC(c3cc(Cl)cc(Cl)c3)(C(F)(F)F)C2)cc1C)c1ccc([N+](=O)[O-])cc1 (centres unmarked) [5-026]	≥ 80%
Cc1cc(C2=NOC(c3cc(Cl)cc(Cl)c3)(C(F)(F)F)C2)ccc1C(=O)N(C)c1ccc(C#N)cc1 (centres unmarked) [5-027]	≥ 80%
CC(=O)N(C(=O)c1ccc(C2=NOC(c3cc(Cl)cc(Cl)c3)(C(F)(F)F)C2)cc1C)c1ccc(C#N)cc1 (centres unmarked) [5-028]	≥ 80%
COC(=O)N(C(=O)c1ccc(C2=NOC(c3cc(Cl)cc(Cl)c3)(C(F)(F)F)C2)cc1C)c1ccc(C#N)cc1 (centres unmarked) [5-029]	≥ 80%
Cc1cc(C2=NOC(c3cc(Cl)cc(Cl)c3)(C(F)(F)F)C2)ccc1C(=O)N(C(=O)C(C)(C)C)c1cccs1 (centres unmarked) [5-038]	≥ 80%
Cc1cc(N(C)C(=O)c2ccc(C3=NOC(c4cc(Cl)cc(Cl)c4)(C(F)(F)F)C3)cc2C)no1 (centres unmarked) [5-039]	≥ 80%
CC(=O)N(C(=O)c1ccc(C2=NOC(c3cc(Cl)cc(Cl)c3)(C(F)(F)F)C2)cc1C)c1cc(C)on1 (centres unmarked) [5-040]	≥ 80%
COC(=O)N(C(=O)c1ccc(C2=NOC(c3cc(Cl)cc(Cl)c3)(C(F)(F)F)C2)cc1C)c1cc(C)on1 (centres unmarked) [5-041]	≥ 80%
Cc1cc(C2=NOC(c3cc(Cl)cc(Cl)c3)(C(F)(F)F)C2)ccc1C(=O)N(C)n1cccn1 (centres unmarked) [5-043]	≥ 80%
COC(=O)N(C(=O)c1ccc(C2=NOC(c3cc(Cl)cc(Cl)c3)(C(F)(F)F)C2)cc1C)n1cccn1 (centres unmarked) [5-045]	≥ 80%
Cc1cc(C2=NOC(c3cc(Cl)cc(Cl)c3)(C(F)(F)F)C2)ccc1C(=O)N(C)c1ccn(C)n1 (centres unmarked) [5-046]	≥ 80%
COC(=O)N(C(=O)c1ccc(C2=NOC(c3cc(Cl)cc(Cl)c3)(C(F)(F)F)C2)cc1C)c1nncs1 (centres unmarked) [5-049]	≥ 80%
CC(=O)N(C(=O)c1ccc(C2=NOC(c3cc(Cl)cc(Cl)c3)(C(F)(F)F)C2)cc1C)c1ccccn1 (centres unmarked) [5-050]	≥ 80%
COC(=O)N(C(=O)c1ccc(C2=NOC(c3cc(Cl)cc(Cl)c3)(C(F)(F)F)C2)cc1C)c1ccccn1 (centres unmarked) [5-051]	≥ 80%
Cc1cc(C2=NOC(c3cc(Cl)cc(Cl)c3)(C(F)(F)F)C2)ccc1C(=O)N(C)c1ccc(Cl)cn1 (centres unmarked) [5-052]	≥ 80%
Cc1cc(C2=NOC(c3cc(Cl)cc(Cl)c3)(C(F)(F)F)C2)ccc1C(=O)N(C)c1cccnc1 (centres unmarked) [5-078]	≥ 80%
CC(=O)N(C(=O)c1ccc(C2=NOC(c3cc(Cl)cc(Cl)c3)(C(F)(F)F)C2)cc1C)c1cccnc1 (centres unmarked) [5-079]	≥ 80%
COC(=O)N(C(=O)c1ccc(C2=NOC(c3cc(Cl)cc(Cl)c3)(C(F)(F)F)C2)cc1C)c1cccnc1 (centres unmarked) [5-080]	≥ 80%
Cc1cc(C2=NOC(c3cc(Cl)cc(Cl)c3)(C(F)(F)F)C2)ccc1C(=O)N(C)c1ccc(Cl)nc1 (centres unmarked) [5-081]	≥ 80%
COC(=O)N(C(=O)c1ccc(C2=NOC(c3cc(Cl)cc(Cl)c3)(C(F)(F)F)C2)cc1C)c1ccc(Cl)nc1 (centres unmarked) [5-082]	≥ 80%
Cc1cc(C2=NOC(c3cc(Cl)cc(Cl)c3)(C(F)(F)F)C2)ccc1C(=O)N(C)c1ccncc1 (centres unmarked) [5-083]	≥ 80%
Cc1cc(C2=NOC(c3cc(Cl)cc(Cl)c3)(C(F)(F)F)C2)ccc1C(=O)N(C)c1ncccn1 (centres unmarked) [5-084]	≥ 80%
CCN(C(=O)c1ccc(C2=NOC(c3cc(Cl)cc(Cl)c3)(C(F)(F)F)C2)cc1C)c1ncccn1 (centres unmarked) [5-085]	≥ 80%
COCN(C(=O)c1ccc(C2=NOC(c3cc(Cl)cc(Cl)c3)(C(F)(F)F)C2)cc1C)c1ncccn1 (centres unmarked) [5-086]	≥ 80%
CCC(=O)N(C(=O)c1ccc(C2=NOC(c3cc(Cl)cc(Cl)c3)(C(F)(F)F)C2)cc1C)c1ncccn1 (centres unmarked) [5-088]	≥ 80%
Cc1cc(C2=NOC(c3cc(Cl)cc(Cl)c3)(C(F)(F)F)C2)ccc1C(=O)N(C(=O)C(C)(C)C)c1ncccn1 (centres unmarked) [5-091]	≥ 80%

Same assay, conditions: chemical solution 500 ppm; cabbage leaf dip; second instar larva; after 6 days; 25° C.

SMILES	insecticidal rate (rate of dead insects)
Cc1cc(N(C)C(=O)c2ccc(C3=NOC(c4cc(Cl)cc(Cl)c4)(C(F)(F)F)C3)cc2C)sn1 (centres unmarked) [5-042]	≥ 80%
Cc1cc(C2=NOC(c3cc(Cl)cc(Cl)c3)(C(F)(F)F)C2)ccc1C(=O)N(C)c1nccs1 (centres unmarked) [5-047]	≥ 80%
Cc1cc(C2=NOC(c3cc(Cl)cc(Cl)c3)(C(F)(F)F)C2)ccc1C(=O)N(C)c1nncs1 (centres unmarked) [5-048]	≥ 80%
CCCC(=O)N(C(=O)c1ccc(C2=NOC(c3cc(Cl)cc(Cl)c3)(C(F)(F)F)C2)cc1C)c1ncccn1 (centres unmarked) [5-089]	≥ 80%
